# Results taken from paper doi:10.1101/419911.
# Sequences of proteins named here, by UniProt entry; tags and fusion partners are left off. A change or cut given only in a name is not applied to a line headed by its entry.
# UniProt Q96CW1: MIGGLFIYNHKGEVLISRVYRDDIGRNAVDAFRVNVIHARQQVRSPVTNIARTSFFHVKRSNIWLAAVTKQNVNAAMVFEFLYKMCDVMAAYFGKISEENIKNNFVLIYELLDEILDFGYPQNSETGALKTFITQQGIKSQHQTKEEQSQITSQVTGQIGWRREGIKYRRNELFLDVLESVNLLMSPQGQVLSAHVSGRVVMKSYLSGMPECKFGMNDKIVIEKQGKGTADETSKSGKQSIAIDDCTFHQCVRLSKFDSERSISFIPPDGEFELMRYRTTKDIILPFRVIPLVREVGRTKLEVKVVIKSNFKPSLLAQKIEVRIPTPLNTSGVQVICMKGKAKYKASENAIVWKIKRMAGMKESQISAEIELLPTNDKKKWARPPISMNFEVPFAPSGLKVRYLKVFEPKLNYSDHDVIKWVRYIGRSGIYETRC
# Target: T1, IRS1 peptide YMPMpS (phospho-S616), pS-IRS1 (human)
# T1 sequence (peptide, phosphoserine at S616 (pS)): CHTDDGYMPMSPGVA
# Assay: pull-down
row,binding,Substance
1,binds,AP2M1 (residues 160-435) with H416 mutated (from UniProt Q96CW1) (domain or fragment)
2,binds,AP2M1 (residues 160-435) with K405 mutated (from UniProt Q96CW1) (domain or fragment)
3,binds,AP2M1 (residues 160-435) with K420 mutated (from UniProt Q96CW1) (domain or fragment)

# No constants are given. Whether binding was seen depends on the method and setting. Binding can be weak; no strength is given.
